System: ConA cells
Test: Drug sensitivity (growth inhibition) assay, ConA cells
Type: cell-based, mouse
Details: Compound 102 (10 μM), fold resistance
Description: Drug sensitivity assays. To estimate drug-mediated growth inhibition, 10^3 cells were plated per well of 96-well plates, and incubated with a range of concentrations of drugs added 24 hours after plating. […] After elution by 1% SDS solution, optical density was determined on a Multiscan Ascent reader (Lybsystems, Helsinki, Finland) at 650 nm.

CN[C@H]1CCc2cc(OC)c(OC)c(OC)c2-c2ccc(OC)c(=O)cc21 [Colcemide, colcemid] was tested, and the “Change in sensitivity (x-fold)” value was 1 x-fold.
